# The list shows a part of the results.
# Test system: SOX2 + histone octamer
# Assay: EMSA with sequencing
# Conditions: 10 mM Tris-Cl pH 7.5, 50 mM NaCl, 1 mM DTT, 0.25 mg/ml BSA, 2 mM MgCl2, 0.025% Nonidet P-40, 5% glycerol; 28 nM nucleosome library; 10 min on ice then 30 min …; high values mean tight binding; double strand, one strand shown
row,Sequence,binding signal (log2 relative supershift)
1,GATGGACCCTATACGCGGCAGACCAGAACTGAATGAAGTGAAAACATTTTCAAATGCAAGTGGCAGGCAAACTGCCCCACCCTATCCTGGAAGACAATACAAAGAGGGATGGGGGAGAGAAGAAAATAAGTGATTCTCCTACACACCCAGCCCATGCCATGCTAATCCCTTTTTGAGGACCACTGGTTTTAAACAAACTCTCTTTTGCTGTGCCAGTCGGATAGTGTTCC,0.543
2,GATGGACCCTATACGCGGCGCACTGTAGCTGTCGACTTTGTTTCAGACACCAGCCTTCCCCCACACTTCTGCATGACCCAGGTCACTATGAGACACCCAGACGTGTTGATGACAGTGACATTTGTCCTAGAGTGACCACACTGATCCTTTCTAGCACTGTGAAGAGTGTGCAGCTTCCTCTGAACCAAGGTTTCCAAAAGGTTTTGATATTGCCAGTCGGATAGTGTTCC,0.777
3,GATGGACCCTATACGCGGCCCTGGAGAATCTCTGACCCTCCCCACAAGTGTTTACATCAGATGCTTTTGTAAACATGAAGGAACCTTCCCAGGGCCTTGTCTGGGCTTGCCCACAATGTACTGGAGGCCCGCCTGTGCACTGGGAGAATGGGGTGGAGCCACTGGGATTTGCGCCTTATGCAGAGGGGAGGAGCCTGGCCTCTTCAGCTCTGCCAGTCGGATAGTGTTCC,0.147
4,GATGGACCCTATACGCGGCTCTTTAAAGAAAAAAAAAATGGCTATTGTTTTCCTGAGACCTCCCACATGTTGGGAAATAACTTACAGTGAGGCAGTTTCCTTGTGGTGTAGTCTGAACTCTTGAATAGCTGGCTGTGTATGGATTGCGGCAGTCACCATAACAATGGGCTCATCTTAAAACGTTCATTTAGATTCATTATTGGAACTGTGTGCCAGTCGGATAGTGTTCC,2.05
5,GATGGACCCTATACGCGGCCCTACCTGTTTCTTGCAGTCGTGTATTCTGGGACTTTCCTCATGGTGGGACCTTTCACACAACCCTCCTCTTCAAGCTGGGCAAGCCTGTTCTTGTCTCTCTTGTGCTTCAGGAGGAAGTACTGGAGAAGATGTAAGTTTTTAAGCCTTCATTTGGGGGGATGTGGAATGAAGGCAAAGGAGAGATGGGCATGCCAGTCGGATAGTGTTCC,1.3
6,GATGGACCCTATACGCGGCTGTGATGTCAGTTTGTATGTACGAGAACAGTGGGTGTGGGCAGTAAAGGGGTGGGATGAAATGAGCATCTGTGTGTGTGTTTGCGCATGTGCATCATGTGTACACACATATGCACACACATGCCTAGTATCTGCTCTCTCCTTATTCTAGATTACCCCTACCCCCTTTTATTAAAGACTCAAGAGGATCTTTGCCAGTCGGATAGTGTTCC,0.458
7,GATGGACCCTATACGCGGCTCACACACCCATCCTAACATTGTCAAATGTGTCACACACCCACCTTACCATTGTCATCTATCCCACCATTGTCAAGTGTGTCATGCACCCATCCTACCATTGTCACCCATCATACCATTGTCAAGCAACTGTTTAACAATGAAAAGATTTATAAGATGGAAATAGATTATCAGATGGATTTAAGGCCTTGATGCCAGTCGGATAGTGTTCC,0.0608
8,GATGGACCCTATACGCGGCGCTGCCACATCCATTCATTTATGTGATCCAAAGAGGTGGAGGCAGAGGCAGTCACAAGCCTGGACTTGAGTCAGGCAGGCCTGGGCTGGAACTTGGATTAGCAGACCACAGCCAAGCACTTCACTCATCTCTAAATCTGGAATTGTAGAAGTCTTTCTCCCATTTTATATGTGCTTGCAGGATTCCTTAAGTGCCAGTCGGATAGTGTTCC,1.07
9,GATGGACCCTATACGCGGCTTAGATAAACAAAATCTGGAGTATCTGAAGGGTGTGTAAGGCAGAAGTCATGTGAGGTCTGCACACAGCACACTGCTACCTACAGTGTTGGGGGAGTGGCATTGAGCACCATTATCATGCAAGGTGGAGGTGGGTGCCAATAATCACCACTATCATGCAAGGCTAGGGTGGGTGAGGGCAGAAGCCACTCTTGCCAGTCGGATAGTGTTCC,0.363
10,GATGGACCCTATACGCGGCTAGCCCAACTATTTAACTAAAGGAACTTTGTAATATCTGGACTCAGAAACTGAGATAAATGCCATAACCAATCATCCAACCGGAGACTGAGGTACATGTAATCAGGTTCAAAAGTGACTCTAAAGGTACTTGCCTGGCAGCATGACAAAGTGGCATATTATTACACTCCTTAAACACTTTGTGAGAAGCAGTGCCAGTCGGATAGTGTTCC,0.614
11,GATGGACCCTATACGCGGCTACTCACATTTGACTAATTGCCCACCCACTCCAGCATTAGAGATGTTATTAGTATGCAGATTTGTGGTAATCCCTGGATGGGTGAGGCTTCCTAGATCTCCCTTTCTCACAGGCTCCCCCTCCTGCTATCTGCCTACTCTAACAGAAATGTTTTCTATCTTAACTGTGTCAATGTCAGTATCTTGATTGTGTGCCAGTCGGATAGTGTTCC,0.806

# Two entries from above, reformatted.
row | Sequence | binding signal (log2 relative supershift)
2 | GATGGACCCTATACGCGGCGCACTGTAGCTGTCGACTTTGTTTCAGACACCAGCCTTCCCCCACACTTCTGCATGACCCAGGTCACTATGAGACACCCAGACGTGTTGATGACAGTGACATTTGTCCTAGAGTGACCACACTGATCCTTTCTAGCACTGTGAAGAGTGTGCAGCTTCCTCTGAACCAAGGTTTCCAAAAGGTTTTGATATTGCCAGTCGGATAGTGTTCC | 0.777
9 | GATGGACCCTATACGCGGCTTAGATAAACAAAATCTGGAGTATCTGAAGGGTGTGTAAGGCAGAAGTCATGTGAGGTCTGCACACAGCACACTGCTACCTACAGTGTTGGGGGAGTGGCATTGAGCACCATTATCATGCAAGGTGGAGGTGGGTGCCAATAATCACCACTATCATGCAAGGCTAGGGTGGGTGAGGGCAGAAGCCACTCTTGCCAGTCGGATAGTGTTCC | 0.363

# Test system: c-MYC + MAX + histone octamer
# Assay: EMSA with sequencing
# Conditions: 10 mM Tris-Cl pH 7.5, 50 mM NaCl, 1 mM DTT, 0.25 mg/ml BSA, 2 mM MgCl2, 0.025% Nonidet P-40, 5% glycerol; 28 nM nucleosome library; 10 min on ice then 30 min …; high values mean tight binding; double strand, one strand shown
row,Sequence,binding signal (log2 relative supershift)
1,GATGGACCCTATACGCGGCTGTGAATTGTGGAGGAAGGGCCCAGGAGGGCCACATGCCCTGCCAGGGAAGCCATAGAGAGCCCTGCCCCGGGAGGTCAGTGCCTCCTTCAATGCCTGCGATCCCTCACCCTGCCCTGCTTCCCCCACCATCCGCCCCGCCTGGGCAGCCTGGGCCACTGCCCGCCAGCCACCCCCGCCTTCGGACTGTGCTGCCAGTCGGATAGTGTTCC,0.614
2,GATGGACCCTATACGCGGCCCTCCCTGGGCATACCTGGTGGCATCAGGCCTGATCCTCTACAATGTCTGTCCCTGCCCTTGCCTGCTACTTCCAGGCCTACCTCCAGCCCAGACCTGCCCAGGCCTGCCCAGGCCCTGCTCTACCCTGATGCTCTGTGGCTCTGTTCCTGGGACTCTTCCTGGGAGACAGAAGGGAGATGAGAGCTCAAGTGCCAGTCGGATAGTGTTCC,0.2
3,GATGGACCCTATACGCGGCCTTCTGGCATGGACTTTGCCCCAGAGGGACACACCTAGCTTCTTGCGGGAGTGGGCAAGGAGGAGCACAGTTGGAACTACAGGGAGGGTGGTGGGGCTTGGCCCCCATGCAGTAGGCACATGGCAGGTGTTCCCTAAGGAGGAAACCTGGCCCTCCTCAGTCTTTCCTGTGAGACTGAGTAGGCAGAGTGGTGCCAGTCGGATAGTGTTCC,0.362
4,GATGGACCCTATACGCGGCGGGAATACGTGCATGAGTGGGGTGTGTGTGCATGTGTGTGAATGTGTGTGTGCATGTGCAAAGCAACTCTGTGTATGAGGCAAACCTGAGTGTGTGCGGTGCGTGTGAATGCCTGCATGTGCGCGTGCGTGTGTGAAGAGTCTGCGTGGGGGAACACGTGTGTAAAGGCATGGATGTGCACGTGTGTGTGCTGCCAGTCGGATAGTGTTCC,1.21
5,GATGGACCCTATACGCGGCCATTCCCCAAGCCCTCCCAGTTATCCATGATCAGGAGGCTGTCTCTTTGCCTGCCTTCTCCAACCCTGCACCCAGCCTCTTTGCCTCTGCAGGACTTCCCCAGAAAGTTGAATCTTCTTCCCTTTATAGAGCGGAGCAGTTCAGCTCAGACTTGTAGGCACACCTGTGCAGCACAGACCAACGTCTCTCCTTGCCAGTCGGATAGTGTTCC,0.578
6,GATGGACCCTATACGCGGCTGTGTGACTCAGCAGAGACAGCCATAATCTCCCTGGGACTATCACTCCATTGGACTGGGAACCACACCACCATCCCCCACAGCAGCTGCAGCAAGCCCCGCCCAAGATGAGGCTGAGCTCAGACAGGCCTATCCCTGCCCCAACCTGCTGGTCTTTCTCTATCCACCCTGGTAGCCAAAGGAAAAGGTCATTGCCAGTCGGATAGTGTTCC,0.228
7,GATGGACCCTATACGCGGCATGGCCTGAGACTCCTGGCCTCTTTCCAACCTAGGGACCACCTGCCACCCCACCCAAACCTCAAGCATGCTGTTGTGTGGCTTCTGCATCCACCCCACCTCAGCTGTGTCTGCGTCACTGGGCAGATGTAGGGATCCCCGTGTACCATGCGCACATGGCCTTGTTTGTGATTAGTGGGGCCCCGAGGGAAATGCCAGTCGGATAGTGTTCC,1.13
8,GATGGACCCTATACGCGGCACTCCAGAGGCAGAGATGGGACGACTGCTTGAGCCCAAGAGTTTAGTTAGAAGCTGCAGAGAGCTCTGGTCATGGCACTGCACTCCAGCCTGGGCAACAGAGCAAGACCTCATCTCCTGCCTGGGCGTGCTGGTTCATGCCTGTAATCCCAGCACTTTGGGAGACCGAAGCACATGGATCACTTGAGGTCATGCCAGTCGGATAGTGTTCC,1.25
